From patent publication CN111171152A
Results are given in words; binding and its absence hold for the method and conditions named. Some binding calls cover weakened binding; strength is not graded here.

The chains behind the UniProt entries cited, without tags or fusion partners. Residues count along the entry.
UniProt Q8NBP7, residues 31-692: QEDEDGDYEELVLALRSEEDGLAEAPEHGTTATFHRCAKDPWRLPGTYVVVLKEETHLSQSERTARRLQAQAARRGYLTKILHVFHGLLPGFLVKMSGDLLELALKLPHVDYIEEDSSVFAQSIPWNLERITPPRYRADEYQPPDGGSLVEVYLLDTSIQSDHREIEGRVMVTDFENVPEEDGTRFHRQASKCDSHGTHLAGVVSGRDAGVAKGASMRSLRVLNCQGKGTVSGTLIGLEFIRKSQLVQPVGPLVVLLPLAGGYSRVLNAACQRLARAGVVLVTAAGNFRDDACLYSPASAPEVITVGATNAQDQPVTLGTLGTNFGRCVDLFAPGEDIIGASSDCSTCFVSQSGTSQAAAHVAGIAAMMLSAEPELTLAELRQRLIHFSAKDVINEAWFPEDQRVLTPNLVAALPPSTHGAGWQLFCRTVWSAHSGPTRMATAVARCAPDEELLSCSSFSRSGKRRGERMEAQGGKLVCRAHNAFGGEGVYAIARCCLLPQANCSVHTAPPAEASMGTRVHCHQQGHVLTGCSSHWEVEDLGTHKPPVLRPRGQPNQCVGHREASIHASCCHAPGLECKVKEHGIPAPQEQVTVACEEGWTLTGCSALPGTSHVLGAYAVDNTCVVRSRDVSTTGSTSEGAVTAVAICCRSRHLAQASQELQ

Key:
[1] = target: 重组人PCSK9蛋白 (recombinant human proprotein convertase subtilisin kexin type 9) (human) (UniProt Q8NBP7); assay: western blot, purified antibody 1:1000, HRP goat anti-mouse IgG
[2] = target: 重组人PCSK9蛋白 (recombinant human proprotein convertase subtilisin kexin type 9) (human) (UniProt Q8NBP7); assay: indirect ELISA and western blot
[3] = target: 重组人PCSK9蛋白 (recombinant human proprotein convertase subtilisin kexin type 9) (human) (UniProt Q8NBP7); assay: sandwich fluorescence immunochromatography

Measured: binding

B1: PCSK9-6C6 (antibody, V domains shown)
VH: EVLLVESGGGLVKPGGSLKLSCAASGFTFSAYAMSWVRQSPEKRLEWVSEISDGGYYTYYPDTVTGRFTISRDNAKNTLYLEMNSLRSEDTAMYYCARRYDGAFTYWGQGTLVTVSS
VL: DIVLTQSPGIMSASPGEKVTISCSASSSVSYMYWYQQKPGSSPKPWIYRTSNLASGVPARFSGSGSGTSYSLTISSMEAEDAATYYCQQYQSYPHTFGGGTKLEMK
binds: [1] | [2] | [3]
